This note sets out measurements from patent US20250195521A1 (Revolution Medicines, Inc., priority 2020, published 2025).

Protein sequences, listed by entry. Tags and fused reporters are not part of them. Lines headed by an entry give the natural chain unless they say otherwise; changes in a name come on top. Chains listed by the source or under a name are the forms on record and can include a tag or linker. Residues count along the entry.
UniProt P01116, 1-164 with tags or gaps G12C limits assumed: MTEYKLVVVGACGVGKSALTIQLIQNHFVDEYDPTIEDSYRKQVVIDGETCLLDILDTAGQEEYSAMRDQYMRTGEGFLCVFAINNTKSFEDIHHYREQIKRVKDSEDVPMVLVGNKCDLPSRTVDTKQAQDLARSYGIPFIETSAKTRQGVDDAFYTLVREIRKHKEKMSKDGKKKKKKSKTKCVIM
UniProt P62937, whole entry, stated change not applied: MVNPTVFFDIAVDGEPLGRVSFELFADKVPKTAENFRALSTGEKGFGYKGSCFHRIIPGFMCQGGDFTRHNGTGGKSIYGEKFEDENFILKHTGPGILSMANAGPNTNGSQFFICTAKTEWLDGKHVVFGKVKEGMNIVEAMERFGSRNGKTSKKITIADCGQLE

One may read the IC50 as the midpoint of a concentration-inhibition curve.

The assay has as its target K-Ras G12C(GMP-PNP) binding to BRAF RBD (Homo sapiens (Human), UniProt P01116+P62937, G12C). As to the kind of experiment: Disruption of BRAF RBD interaction with K-Ras (FRET / MOA assay), K-Ras G12C. The assay is classed as biochemical. Conditions: read-out: KRAS G12C FRET IC50.

The source holds more than one record for some entries. This is not the full list of results. There may be further records. Values that stand side by side do not match, cause unknown; they may come from other doses, times, organisms or constructs than stated.

As for `C=CC(=O)N1CC[C@H](C(=O)N(C)[C@H](C(=O)N[C@H]2Cc3cc(O)cc(c3)-c3ccc4c(c3)c(c(-c3cccnc3[C@H](C)OC)n4CC)CC(C)(C)COC(=O)[C@@H]3CCCN(N3)C2=O)C(C)C)C1`, the IC50 was 100 nM to 1 µM and < 10 nM.
